Hit rate of the full screen: of about 360,000 compounds, about 7,500 (2.1%) were called active. Inconclusive means that the source gave no clear call. Such entries were picked first, then a sample of the others. The call rests on the fitted dose curve; in most records, active means well fitted inhibition curve with a large enough effect; inconclusive means small, poorly fitted or top-dose-only effect, or effect the other way; inactive means flat fitted curve, though single readings scatter. Potencies beside an inconclusive call are fits to weak or partial responses and may not hold up.
test: Nrf2 qHTS screen for inhibitors; details: A549 ARE-Fluc reporter, luciferase luminescence, 18-24 h; series mostly up to 46 µM; further: nearly all actives have a fitted effect of over 60% in size
Method in brief: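 Nrf2 function is reported as luminescence of an ARE-controlled luciferase in A549 cells. Compounds were tested at several concentrations, and a CellTiter-Fluor read on the same wells flagged cytotoxicity.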
Potency means the concentration at half of the fitted maximal effect.

| SMILES | Potency |
| --- | --- |
| CN(C)S(=O)(=O)c1cccc(NC(=O)COc2ccc(C(=O)c3ccccc3)cc2)c1 | inconclusive: 18.4 µM [falling, single point] |
| COc1ccc(-c2noc(CSc3nnc(Cc4ccccc4)n3-c3ccc(F)cc3)n2)cc1 | inconclusive: 29.1 µM [falling, single point] |
| C=CCn1c(SCc2csc(C)n2)nc2sc3c(c2c1=O)CCCC3 | active: 25.9 µM |
| CC1(C(=O)OCC(=O)Nc2ccc(S(=O)(=O)N3CCOCC3)cc2)CC1(Cl)Cl (stereo not given) | inconclusive: 9.2 µM [falling, partial curve, poor fit] |
| O=C(CC1SC(=Nc2ccccc2)N(CCc2ccccn2)C1=O)Nc1ccc(F)cc1 (stereo not given) | inconclusive: 29.1 µM [falling, single point] |
| Cc1nc(N2CCN(S(=O)(=O)c3ccc(F)cc3)CC2)c2c(-c3cccs3)csc2n1 | active: 16.4 µM |
| CC(C)c1ccccc1NC(=S)NCCCn1ccnc1 | inactive |
| CSc1ncccc1C(=O)N1CCN(S(=O)(=O)c2ccc3ccccc3c2)CC1 | inconclusive: 25.9 µM [falling, single point] |
| COc1ccc(NC(=O)c2oc3ccccc3c2NC(=O)C2CC2)cc1 | inconclusive: 1.84 µM [falling, full curve] |
| O=C(CCCCCn1c(=S)[nH]c2ccc(N3CCOCC3)cc2c1=O)NC1CCN(Cc2ccccc2)CC1 | inconclusive: 25.9 µM [falling, single point] |
| Cc1ccc(S(=O)(=O)N(CC(=O)Nc2cccnc2)c2cc(Cl)ccc2C)cc1 | inconclusive: 23.1 µM [falling, single point] |
| Cc1ccc(CN2CCC(CNC(=O)c3cnn(-c4ccc(C)cc4)c3C3CCN(C(=O)OC(C)(C)C)CC3)CC2)cc1 | inactive |
| C=C1[C@@H](OC(C)=O)CC[C@]2(C)[C@@H]1C[C@@H]1C[C@H](OC(C)=O)C(C)=C([C@@H](OC(C)=O)[C@@H]2OC(C)=O)C1(C)C | inconclusive: 2.59 µM [falling, partial curve, poor fit] |
| COc1cccc(-c2cc(C(=O)N3CCN(S(=O)(=O)c4ccccc4)CC3)[nH]n2)c1 | inconclusive: 14.6 µM [falling, single point] |
| COc1ccc(NC(=O)CC2C(=O)N(c3ccccc3)C(=O)N2CCc2sccc2C)cc1 (stereo not given) | inconclusive: 23.1 µM [activator, single point] |
| NS(=O)(=O)c1ccc(CCNC(=O)CN2CCCCC2)cc1 | inactive |
| Cc1cccc(NC(=O)CCCn2nc(C)c3c(C)n(-c4ccccc4)nc3c2=O)c1C | inactive |
| Cc1ccccc1OCCNC(=O)/C=C/c1ccc([N+](=O)[O-])cc1 | inconclusive: 11.6 µM [falling, partial curve, poor fit] |
| CCc1ccc(C(=O)NCc2cnn(C)c2)s1 | inconclusive: 13 µM [activator, single point] |
| Cc1ccc(NS(=O)(=O)c2ccc3c(c2)NC(=O)CCS3)c(Cl)c1 | inconclusive: 10.3 µM [falling, partial curve, poor fit] |

| SMILES | Potency |
| --- | --- |
| O=C(Cc1n[nH]c(=O)c2ccccc12)Nc1cccc(S(=O)(=O)N2CCCCCC2)c1 | active: 9.2 µM |
| CC(C)CNC(=O)CCc1nc(-c2ccccc2)no1 | inconclusive: 23.1 µM [activator, single point] |
| COc1ccc(CC(=O)OCC(=O)Nc2ncc(Cl)c(C)c2Cl)cc1 | inconclusive: 25.9 µM [activator, partial curve, poor fit] |
| CCN(CC)S(=O)(=O)c1ccc(C(=O)NC2=NCCS2)cc1 | inconclusive: 2.59 µM [activator, partial curve] |
| CC(=O)Nc1cc2c(ccc3ccccc32)oc1=O | inconclusive: 0.164 µM [falling, partial curve, poor fit] |
| Cc1ccc(S(=O)(=O)N(C)CC(=O)NCCc2c[nH]c3ccccc23)cc1 | inconclusive: 25.9 µM [falling, partial curve, poor fit] |
| COc1ccc(OC)c(-c2cc(C(=O)Nc3c(C)nn(Cc4ccc(C)cc4)c3C)no2)c1 | inactive |
| O=C(Nc1ccc(S(=O)(=O)Nc2nccs2)cc1)c1ccc(F)c(S(=O)(=O)N2CCOCC2)c1 | inactive |
| Cc1ccccc1CNC(=O)C1CCCCN1S(=O)(=O)c1ccc(F)cc1 (stereo not given) | inconclusive: 4.11 µM [activator, single point] |
| COc1ccc(-c2csc3ncnc(NCCN4CCOCC4)c23)cc1 | inconclusive: 14.6 µM [falling, partial curve, poor fit] |
| COc1ccc(NC(=O)c2sc(SC)nc2N)cc1 | inconclusive: 1.3 µM [activator, full curve] |
| COc1cc2c(cc1OC)CN(C1CCCN(Cc3cc(Cl)ccc3O)C1)CC2 (stereo not given) | inconclusive: 29.1 µM [falling, single point] |
| CCn1nnc(NC(=O)c2cccc(-c3cc4ccccc4oc3=O)c2)n1 | inconclusive: 2.06 µM [activator, partial curve, poor fit] |
| COc1ccc(NC(=O)c2oc3ccccc3c2C)c(OC)c1 | inconclusive: 3.66 µM [activator, full curve, poor fit] |
| Cc1ccc(SCC(=O)N(C)C2CCS(=O)(=O)C2)c(C)c1 (stereo not given) | inconclusive: 20.6 µM [falling, partial curve, poor fit] |
| COc1ccc(NC(=O)CSc2nnc(C3CCCCC3)n2-c2ccccc2)cc1 | inconclusive: 29.1 µM [falling, single point] |
| CCCOc1ccc2c3c(c(=O)oc2c1OCCC)CCC3 | inconclusive: 29.1 µM [falling, single point] |
| CCOc1ccc(CNC(=O)c2ccc(CSc3nc4ccncc4n3Cc3ccc(F)cc3)cc2)cc1 | inconclusive: 29.1 µM [falling, single point] |
| Cn1cccc1C(=O)OCc1ccc(C(C)(C)C)cc1 | inconclusive: 20.6 µM [activator, partial curve] |
| Cn1nc(C(C)(C)C)cc1C(=O)NNC(=O)c1ccccc1Cl | inconclusive: 29.1 µM [falling, single point] |

2 records picked at random from those above:

| SMILES | Potency |
| --- | --- |
| O=C(Nc1ccc(S(=O)(=O)Nc2nccs2)cc1)c1ccc(F)c(S(=O)(=O)N2CCOCC2)c1 | inactive |
| Cc1ccc(SCC(=O)N(C)C2CCS(=O)(=O)C2)c(C)c1 (stereo not given) | inconclusive: 20.6 µM [falling, partial curve, poor fit] |

— PubChem BioAssay AID504444 (National Center for Advancing Translational Sciences (NCATS), 2011)
